# These are yes or no findings as the source states them, for the method shown. For some assays here: In cells and extracts the contact can be indirect. Some entries that bind do so weakly or less than the wild type.
# T1: PPD3, 27.5 kDa PsbP domain-containing protein (Arabidopsis, AT1G76450) (Arabidopsis) (UniProt Q9S720)
# T1 sequence (looked up): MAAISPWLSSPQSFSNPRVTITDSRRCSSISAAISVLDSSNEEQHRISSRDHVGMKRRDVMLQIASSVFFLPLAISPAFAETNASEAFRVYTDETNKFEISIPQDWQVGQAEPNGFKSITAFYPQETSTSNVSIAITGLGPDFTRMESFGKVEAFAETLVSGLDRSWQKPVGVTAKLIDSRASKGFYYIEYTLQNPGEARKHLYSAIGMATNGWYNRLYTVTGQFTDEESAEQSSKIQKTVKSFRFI
# B1: Arabidopsis MSH1 protein (MUTS HOMOLOG 1), full-length (protein)
# chain: MHWIATRNAVVSFPKWRFFFRSSYRTYSSLKPSSPILLNRRYSEGISCLRDGKSLKRITTASKKVKTSSDVLTDKDLSHLVWWKERLQTCKKPSTLQLIERLMYTNLLGLDPSLRNGSLKDGNLNWEMLQFKSRFPREVLLCRVGEFYEAIGIDACILVEYAGLNPFGGLRSDSIPKAGCPIMNLRQTLDDLTRNGYSVCIVEEVQGPTPARSRKGRFISGHAHPGSPYVYGLVGVDHDLDFPDPMPVVGISRSARGYCMISIFETMKAYSLDDGLTEEALVTKLRTRRCHHLFLHASLRHNASGTCRWGEFGEGGLLWGECSSRNFEWFEGDTLSELLSRVKDVYGLDDEVSFRNVNVPSKNRPRPLHLGTATQIGALPTEGIPCLLKVLLPSTCSGLPSLYVRDLLLNPPAYDIALKIQETCKLMSTVTCSIPEFTCVSSAKLVKLLEQREANYIEFCRIKNVLDDVLHMHRHAELVEILKLLMDPTWVATGLKIDFDTFVNECHWASDTIGEMISLDENESHQNVSKCDNVPNEFFYDMESSWRGRVKGIHIEEEITQVEKSAEALSLAVAEDFHPIISRIKATTASLGGPKGEIAYAREHESVWFKGKRFTPSIWAGTAGEDQIKQLKPALDSKGKKVGEEWFTTPKVEIALVRYHEASENAKARVLELLRELSVKLQTKINVLVFASMLLVISKALFSHACEGRRRKWVFPTLVGFSLDEGAKPLDGASRMKLTGLSPYWFDVSSGTAVHNTVDMQSLFLLTGPNGGGKSSLLRSICAAALLGISGLMVPAESACIPHFDSIMLHMKSYDSPVDGKSSFQVEMSEIRSIVSQATSRSLVLIDEICRGTETAKGTCIAGSVVESLDTSGCLGIVSTHLHGIFSLPLTAKNITYKAMGAENVEGQTKPTWKLTDGVCRESLAFETAKREGVPESVIQRAEALYLSVYAKDASAEVVKPDQIITSSNNDQQIQKPVSSERSLEKDLAKAIVKICGKKMIEPEAIECLSIGARELPPPSTVGSSCVYVMRRPDKRLYIGQTDDLEGRIRAHRAKEGLQGSSFLYLMVQGKSMACQLETLLINQLHEQGYSLANLADGKHRNFGTSSSLSTSDVVSIL
# What was measured:
# [1] = target: T1, PPD3, 27.5 kDa PsbP domain-containing protein (Arabidopsis, AT1G76450) (Arabidopsis); assay: co-immunoprecipitation and yeast 2-hybrid
# [2] = target: T1, PPD3, 27.5 kDa PsbP domain-containing protein (Arabidopsis, AT1G76450) (Arabidopsis); assay: yeast 2-hybrid, full-length MSH1 as bait, screen and one-on-one matings
binder,measurement,setting,value
B1,binding,[1],binds
same,binding,[2],binds

# From patent US20150113679A1
